Measured values taken from PubChem BioAssay AID1347076 (National Center for Advancing Translational Sciences (NCATS), 2019).
Screen size: about 400,000 compounds; about 13,000 (3.2%) were called active. Inconclusive results, whose numbers are uncertain, are shown with a selection of clear calls. Calls follow the shape of the dose curve; as a rule, active = well fitted cell-killing curve with a large enough effect; inconclusive = small, poorly fitted or top-dose-only effect, or effect the other way; inactive = flat fitted curve, though single readings scatter. Potencies beside an inconclusive call are fits to weak or partial responses and may not hold up.

assay: qHTS assay for MDR1-selective chemotherapeutics: Primary screen using the drug-selected MDR subline cells KB-V1; conditions: KB-V1 MDR cells viability, CellTiter-Glo, 72 h; activity change, negative = cytotoxicity: at 46.1 µM (top of the series); also: nearly all actives have a fitted effect of over 60% in size
In short: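 In this primary screen, KB-V1 cells overexpressing P-gp are incubated with library compounds (lowest to highest concentration) for 72 h at 37 degrees C before a luminescent ATP viability read.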
% is scaled to controls: 0 for no effect and ±100 for the full control effect; potency is read from the fitted curve at half-maximal effect.

Compound | Potency | activity change, negative = cytotoxicity
CCOc1ccc(CNC(=S)NCc2ccc(OCC)cc2)cc1 | inconclusive: 32.6 µM [cytotoxic, single point] | –
O=C(Nc1cccc(-c2ccc(F)cc2)c1)C1CCCN(Cc2cccnc2)C1 (configuration not stated) | inconclusive: 6.51 µM [cytotoxic, partial curve] | –
COC(=O)c1cc(Oc2ccc(S(=O)(=O)N3CCOCC3)cc2[N+](=O)[O-])cc(C(=O)OC)c1 | – | inactive: 1.19%
CC(=O)Oc1ccccc1C(=O)OCCN=C1NS(=O)(=O)c2ccccc21 | – | inactive: -12.8%
Cc1ccc(CNC(=O)[C@H](Cc2ccccc2)NC(=O)C2CCNCC2)cc1 | inconclusive: 7.31 µM [rising, full curve, poor fit] | –
CCC(C(=O)N1CCN(c2ccc(OC)cc2)CC1)n1nc(C)n2c(cc3occc32)c1=O (configuration not stated) | inconclusive: 18.4 µM [cytotoxic, single point] | –
CCOC(=O)c1noc2ncnc(Nc3cccc(C(F)(F)F)c3)c12 | – | inactive: -17%
COc1cccc(CNC(=O)CCC2CCCN(Cc3cc4ccccc4o3)C2)c1 (configuration not stated) | – | inactive: 0%
COc1ccc(CCC(=O)N2c3ccccc3N=C(c3ccc4c(c3)OCO4)C2C(=O)NCc2ccccc2)cc1 (configuration not stated) | inconclusive: 8.2 µM [cytotoxic, partial curve] | –
Cc1cccnc1CCNC(=O)c1ccc(OC2CCN(Cc3ccccn3)CC2)cc1 | inconclusive: 23.1 µM [cytotoxic, single point] | –
CN(C)CCNC(=O)c1cccc(S(=O)(=O)Nc2ccccc2F)c1 | – | inconclusive: 33%
c1csc(COc2ccccc2CNC2CCCCC2)c1 | inconclusive: 25.9 µM [cytotoxic, single point] | –
CC1(C)Cc2ccccc2-c2nc(-c3ccccc3)oc(=O)c21 | inconclusive: 23.1 µM [cytotoxic, partial curve] | –
CC(=O)Nc1sc(N/N=C\c2ccccc2Cl)nc1-c1cccs1 | inconclusive: 32.6 µM [cytotoxic, partial curve, poor fit] | –
O=C(Nc1nonc1-c1ccc(Cl)cc1)c1ccco1 | inconclusive: 29.1 µM [rising, partial curve, poor fit] | –
Cc1ccc(-c2cc(C(F)F)n3ncc(C(=O)N4CCc5ccccc5C4)c3n2)cc1 | inconclusive: 18.4 µM [cytotoxic, single point] | –
CCOC(=O)C1CCN(Cc2ccc(N(C)C)cc2)CC1 | inconclusive: 29.1 µM [cytotoxic, single point] | –
COc1ccccc1CNCC(=O)Nc1cc(S(=O)(=O)N2CCCCCC2)ccc1Cl | inconclusive: 20.6 µM [cytotoxic, partial curve] | –
Cc1ccc(C2=NNC(C(O)C(O)C(O)CO)S2)cc1 (configuration not stated) | inconclusive: 16.4 µM [rising, single point] | –
CCCC(=O)NC(c1ccc(Cl)cc1)c1ccc2cccnc2c1O (configuration not stated) | inconclusive: 0.411 µM [cytotoxic, full curve, poor fit] | –
O=P(OC1CCCCC1)(OC1CCCCC1)C(O)c1c(Cl)cccc1Cl (configuration not stated) | active: 18.4 µM | –
CCOc1ccc2[nH]c3c(N4CCC5(CC4)OCCO5)ncnc3c2c1 | inconclusive: 16.4 µM [cytotoxic, single point] | –
COc1cccc2[nH]c(C(=O)NCc3ccccc3)cc12 | – | inactive: 22.2%

A portion of the results above, for reference:
Compound | Potency | activity change, negative = cytotoxicity
O=C(Nc1nonc1-c1ccc(Cl)cc1)c1ccco1 | inconclusive: 29.1 µM [rising, partial curve, poor fit] | –
Cc1ccc(-c2cc(C(F)F)n3ncc(C(=O)N4CCc5ccccc5C4)c3n2)cc1 | inconclusive: 18.4 µM [cytotoxic, single point] | –
CCOC(=O)C1CCN(Cc2ccc(N(C)C)cc2)CC1 | inconclusive: 29.1 µM [cytotoxic, single point] | –
COc1ccccc1CNCC(=O)Nc1cc(S(=O)(=O)N2CCCCCC2)ccc1Cl | inconclusive: 20.6 µM [cytotoxic, partial curve] | –

The results go on:

Compound | Potency | activity change, negative = cytotoxicity
COC(=O)c1ccc(NC(=O)CSc2n[nH]c(-c3ccncc3)n2)cc1 | inconclusive: 29.1 µM [rising, single point] | –
O=C(NCCC1=CCCCC1)c1ccc2c(c1)N(Cc1ccc(Cl)cc1)C(=O)c1ccccc1S2(=O)=O | inconclusive: 29.1 µM [cytotoxic, single point] | –
O=C(CN1CCCC1c1cccs1)Nc1cc(S(=O)(=O)N2CCCCC2)ccc1Cl (configuration not stated) | – | inactive: -4.88%
C=CCNC(=S)N/N=C/c1ccc(N(CC)Cc2ccccc2)cc1 | active: 13 µM | –
O=C(NC1CCCC1)C1C(c2ccc(C(F)(F)F)cc2)=Nc2ccccc2N1C(=O)c1ccccc1 (configuration not stated) | inconclusive: 8.2 µM [cytotoxic, partial curve, poor fit] | –
CCCCNS(=O)(=O)CCNCc1ccco1 | – | inactive: -5.2%
COc1ccc(Br)cc1/C=C/C(=O)OCC(=O)NCCc1ccc(S(N)(=O)=O)cc1 | inconclusive: 2.06 µM [rising, partial curve, poor fit] | –
CCn1c(=O)cc(SCC(=O)N2CCN(c3ccccc3OC)CC2)c2ccccc21 | active: 8.2 µM | –
O=C(CCN1C(=O)C2CCCCC2C1=O)Nc1nc(-c2ccc(F)c(F)c2)cs1 (configuration not stated) | – | inactive: -18.8%
Cc1c(Cl)cccc1NC(=O)Cn1cnc(S(=O)(=O)N2CCCC2)c1 | inconclusive: 29.1 µM [rising, single point] | –
CCOc1ccc(S(=O)(=O)N2CCN(C(=S)NC3CC3)CC2)cc1 | inconclusive: 18.4 µM [cytotoxic, single point] | –
O=c1c(N2CCOCC2)coc2ccccc12 | inconclusive: 16.4 µM [rising, single point] | –
CCOC(=O)CC1COCCN1C(=O)c1ccc2oc(Cc3ccccc3)nc2c1 (configuration not stated) | inconclusive: 8.2 µM [cytotoxic, partial curve] | –
CN(C)c1nc(SCC(=O)Nc2ccc(Cl)c(Cl)c2)nc(N2CCOCC2)n1 | inconclusive: 25.9 µM [cytotoxic, single point] | –
Cc1cccc(N2CCN(C(=O)CSCc3c(C)noc3C)CC2)c1C | active: 1.84 µM | –
COc1cc2ncnc(NCc3ccccc3)c2cc1OC | inconclusive: 5.8 µM [cytotoxic, partial curve] | –
COc1ccc(C(=O)Nc2ccc(NC(=O)c3cccc(F)c3)cn2)cc1 | – | inactive: -19.5%
CCC(c1nnnn1Cc1ccco1)N(Cc1cc2cc(OC)ccc2[nH]c1=O)C1CCCCC1 (configuration not stated) | inconclusive: 29.1 µM [cytotoxic, single point] | –
CCOc1ccc(C(=O)Nc2ccc3oc(-c4ccncc4)nc3c2)cc1 | inconclusive: 1.84 µM [cytotoxic, full curve, poor fit] | –
O=S1(=O)CCN(Cc2ccc(Cl)c(Cl)c2)CC1 | inconclusive: 20.6 µM [cytotoxic, partial curve, poor fit] | –
Cc1ccc(S(=O)(=O)Nc2cccc(C(=O)NCC(c3ccco3)N3CCCC3)c2)cc1F (configuration not stated) | inconclusive: 23.1 µM [cytotoxic, single point] | –
COc1ccccc1CNC(=O)CSc1ccc(-c2ccncc2)nn1 | inconclusive: 14.6 µM [cytotoxic, partial curve] | –
Cc1ccc(Nc2nc(C)c(NC(=O)c3ccc(C)cc3)c(Nc3ccc(C)cc3)n2)cc1 | – | inactive: 0%

Compound | Potency | activity change, negative = cytotoxicity
COc1cc2c(cc1NC(=O)C(C)Sc1ccc(C)cc1)oc1ccccc12 (configuration not stated) | inconclusive: 20.6 µM [cytotoxic, single point] | –
O=S(=O)(c1ccc(Cl)c(C(F)(F)F)c1)N1CCN(c2ccccn2)CC1 | inconclusive: 23.1 µM [cytotoxic, single point] | –
COc1ccc(CCC(=O)Nc2cccc(S(=O)(=O)N3CCCCCC3)c2)cc1 | inconclusive: 23.1 µM [cytotoxic, single point] | –
COc1ccc(OC)c(C(C(=O)NCc2ccco2)N(C(=O)Cn2nnc3ccccc32)C2CC2)c1 (configuration not stated) | active: 6.51 µM | –
CCOC(=O)C(CCC#N)(CCC#N)C(=O)OCC | inconclusive: 18.4 µM [rising, single point] | –
C[C@H](NC(=O)c1[nH]cnc1C(=O)Nc1ccc(Cl)cc1)C(=O)OC(C)(C)C | inconclusive: 18.4 µM [cytotoxic, partial curve, poor fit] | –
O=C(Cn1cccn1)N1CCCC(N2CCN(c3ccccc3F)CC2)C1 (configuration not stated) | – | inactive: 3.64%
Cc1ccc(NC(=O)Cn2cc(C(=O)C3CCCCC3)c3ccccc32)c(C)c1 | inconclusive: 13 µM [cytotoxic, partial curve] | –
COc1ccc(C(=O)NCCNc2ncc(C(F)(F)F)cc2Cl)cc1[N+](=O)[O-] | inconclusive: 5.8 µM [cytotoxic, full curve] | –
CCCNc1nc2c(c(=O)n(C)c(=O)n2C)n1CC(O)COc1ccccc1 (configuration not stated) | active: 9.2 µM | –
COc1ccccc1C(=O)N1C(CC(=O)Nc2cc(Cl)ccc2C)C(=O)NC2CCCCC21 (configuration not stated) | inconclusive: 25.9 µM [cytotoxic, single point] | –
CCN1C(=O)[C@H]2[C@@H](c3ccc(OC)cc3)N3C(=O)CN(Cc4ccccc4)C(=O)[C@@]3(Cc3ccccc3)[C@H]2C1=O | inconclusive: 20.6 µM [cytotoxic, single point] | –
CCN(CC(=O)Nc1cc(Cl)ccc1C)C(=O)CCOc1ccccc1C | inconclusive: 8.2 µM [cytotoxic, partial curve, poor fit] | –
Cc1ccc(CNc2ccc3c(c2)ncn3C)cc1 | – | inactive: -8.1%
CCC(C(=O)Nc1cccc(C#N)c1)n1nc(-c2ccccc2)ccc1=O (configuration not stated) | inconclusive: 29.1 µM [cytotoxic, single point] | –
COC(=O)c1ccc(/C=C/c2c(-c3ccc(OC)cc3)oc3ccccc23)cc1 | – | inactive: 0%
Cc1ccc(NC(=O)CCCn2nc(C)c3sc4ccccc4c3c2=O)c(Cl)c1 | – | inactive: 0.46%
Cc1cc(OCC(=O)NC(Cc2c[nH]c3ccc(O)cc23)C(=O)O)c2c(C)c(C)c(=O)oc2c1 (configuration not stated) | inconclusive: 9.2 µM [rising, partial curve] | –
Fc1ccc(N2CCN(C(c3cccs3)c3nnnn3C3CCCC3)CC2)cc1 (configuration not stated) | inconclusive: 6.51 µM [cytotoxic, partial curve] | –
CCCc1ccc(-c2ccc(/C=C/C(=O)O)cc2)nc1 | inconclusive: 29.1 µM [rising, single point] | –
Cc1cccc(NC(=S)NC(=O)CCc2ccccc2)c1C | – | inactive: 2.28%
